Measured values reported in paper PMC10879184.
Results are given in words; binding and its absence hold for the method and conditions named. In cells and extracts the contact can be indirect. Some results given as binding are weak or reduced against the parent protein; the word gives no strength.

By UniProt entry, the sequences of proteins in these tests, tags left out.
UniProt Q8R3S6: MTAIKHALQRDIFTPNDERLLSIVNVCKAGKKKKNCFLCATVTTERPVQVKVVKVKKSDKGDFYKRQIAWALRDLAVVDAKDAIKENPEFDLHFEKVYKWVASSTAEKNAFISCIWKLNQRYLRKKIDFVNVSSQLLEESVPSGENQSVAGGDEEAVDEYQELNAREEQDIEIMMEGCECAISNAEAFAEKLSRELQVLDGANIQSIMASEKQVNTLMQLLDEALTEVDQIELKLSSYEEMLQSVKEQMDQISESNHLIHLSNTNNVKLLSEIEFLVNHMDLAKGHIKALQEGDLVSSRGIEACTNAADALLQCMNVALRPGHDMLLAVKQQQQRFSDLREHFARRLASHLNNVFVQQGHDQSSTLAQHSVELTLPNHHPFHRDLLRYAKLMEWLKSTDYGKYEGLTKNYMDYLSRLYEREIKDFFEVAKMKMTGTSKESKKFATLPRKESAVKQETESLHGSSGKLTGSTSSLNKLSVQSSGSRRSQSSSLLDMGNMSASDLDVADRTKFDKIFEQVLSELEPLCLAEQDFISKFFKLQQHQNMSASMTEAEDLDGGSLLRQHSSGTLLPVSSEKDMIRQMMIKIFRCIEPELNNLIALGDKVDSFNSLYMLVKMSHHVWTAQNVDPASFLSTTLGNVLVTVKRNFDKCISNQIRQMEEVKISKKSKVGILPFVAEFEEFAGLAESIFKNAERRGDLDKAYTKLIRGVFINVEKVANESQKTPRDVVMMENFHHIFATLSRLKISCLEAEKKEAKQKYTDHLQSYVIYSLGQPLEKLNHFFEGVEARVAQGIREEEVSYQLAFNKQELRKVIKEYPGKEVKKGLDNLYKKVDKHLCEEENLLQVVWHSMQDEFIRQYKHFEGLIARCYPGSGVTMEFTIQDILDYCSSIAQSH
UniProt Q9D4H1: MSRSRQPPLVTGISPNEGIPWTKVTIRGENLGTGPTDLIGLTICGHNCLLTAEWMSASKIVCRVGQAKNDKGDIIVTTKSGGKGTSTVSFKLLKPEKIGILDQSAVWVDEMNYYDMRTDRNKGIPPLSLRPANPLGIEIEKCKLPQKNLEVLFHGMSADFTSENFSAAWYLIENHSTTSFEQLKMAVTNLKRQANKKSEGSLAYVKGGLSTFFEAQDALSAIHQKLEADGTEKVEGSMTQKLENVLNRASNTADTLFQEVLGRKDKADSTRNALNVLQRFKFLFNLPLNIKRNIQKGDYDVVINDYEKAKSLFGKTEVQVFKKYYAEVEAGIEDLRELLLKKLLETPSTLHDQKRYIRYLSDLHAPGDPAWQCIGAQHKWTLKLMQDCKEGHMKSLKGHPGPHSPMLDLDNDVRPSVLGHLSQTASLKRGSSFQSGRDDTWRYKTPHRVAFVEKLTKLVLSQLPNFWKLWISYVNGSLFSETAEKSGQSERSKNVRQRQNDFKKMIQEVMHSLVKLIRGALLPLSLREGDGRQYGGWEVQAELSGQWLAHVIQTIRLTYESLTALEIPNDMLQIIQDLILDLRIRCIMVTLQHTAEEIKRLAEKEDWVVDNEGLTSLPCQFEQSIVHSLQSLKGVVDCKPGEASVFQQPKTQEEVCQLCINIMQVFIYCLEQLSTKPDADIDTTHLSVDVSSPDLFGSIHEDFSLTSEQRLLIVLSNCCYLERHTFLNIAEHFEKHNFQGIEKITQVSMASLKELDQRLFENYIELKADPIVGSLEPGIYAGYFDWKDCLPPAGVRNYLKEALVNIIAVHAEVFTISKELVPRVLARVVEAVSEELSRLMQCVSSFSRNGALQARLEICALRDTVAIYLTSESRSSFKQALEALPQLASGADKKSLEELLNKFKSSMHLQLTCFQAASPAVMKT
UniProt Q0VGT2: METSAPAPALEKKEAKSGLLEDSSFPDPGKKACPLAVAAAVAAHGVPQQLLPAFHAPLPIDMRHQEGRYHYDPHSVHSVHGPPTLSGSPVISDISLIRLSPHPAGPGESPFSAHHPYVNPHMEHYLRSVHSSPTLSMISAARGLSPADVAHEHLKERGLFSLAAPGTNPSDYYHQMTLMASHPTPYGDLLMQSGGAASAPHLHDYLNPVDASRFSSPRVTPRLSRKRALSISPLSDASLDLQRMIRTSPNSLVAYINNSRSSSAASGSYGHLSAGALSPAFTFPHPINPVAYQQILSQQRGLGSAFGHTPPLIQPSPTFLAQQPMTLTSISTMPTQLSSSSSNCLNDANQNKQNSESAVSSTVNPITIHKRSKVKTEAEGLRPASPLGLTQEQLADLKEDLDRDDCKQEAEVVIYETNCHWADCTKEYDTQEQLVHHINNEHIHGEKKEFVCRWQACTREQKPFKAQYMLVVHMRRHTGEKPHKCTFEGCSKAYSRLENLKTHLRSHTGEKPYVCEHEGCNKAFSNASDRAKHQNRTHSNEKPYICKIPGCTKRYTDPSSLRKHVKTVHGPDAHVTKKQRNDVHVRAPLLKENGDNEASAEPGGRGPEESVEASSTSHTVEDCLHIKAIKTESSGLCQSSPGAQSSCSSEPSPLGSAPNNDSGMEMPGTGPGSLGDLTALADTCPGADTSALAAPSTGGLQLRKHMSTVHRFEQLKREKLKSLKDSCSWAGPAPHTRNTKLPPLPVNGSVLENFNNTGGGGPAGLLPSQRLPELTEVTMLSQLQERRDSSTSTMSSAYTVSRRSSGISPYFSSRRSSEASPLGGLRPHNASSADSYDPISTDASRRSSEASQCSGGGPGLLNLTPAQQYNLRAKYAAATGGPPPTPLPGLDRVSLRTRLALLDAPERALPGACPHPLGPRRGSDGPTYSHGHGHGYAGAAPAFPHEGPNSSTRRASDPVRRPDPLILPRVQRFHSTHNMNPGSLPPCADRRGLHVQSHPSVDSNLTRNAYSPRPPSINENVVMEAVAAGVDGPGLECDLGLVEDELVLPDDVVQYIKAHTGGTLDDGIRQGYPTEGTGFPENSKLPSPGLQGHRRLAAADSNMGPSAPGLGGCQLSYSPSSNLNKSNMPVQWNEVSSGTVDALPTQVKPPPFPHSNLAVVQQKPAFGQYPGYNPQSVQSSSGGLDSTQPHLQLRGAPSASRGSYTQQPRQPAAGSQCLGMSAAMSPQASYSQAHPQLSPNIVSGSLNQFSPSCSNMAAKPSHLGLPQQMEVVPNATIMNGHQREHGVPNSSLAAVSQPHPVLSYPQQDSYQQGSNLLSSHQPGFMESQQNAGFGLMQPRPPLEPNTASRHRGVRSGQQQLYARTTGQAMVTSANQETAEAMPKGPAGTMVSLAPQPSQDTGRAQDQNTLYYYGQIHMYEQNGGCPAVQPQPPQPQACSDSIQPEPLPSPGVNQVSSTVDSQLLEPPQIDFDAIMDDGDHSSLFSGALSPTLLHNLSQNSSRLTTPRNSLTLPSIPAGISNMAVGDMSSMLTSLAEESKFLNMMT
UniProt Q61602: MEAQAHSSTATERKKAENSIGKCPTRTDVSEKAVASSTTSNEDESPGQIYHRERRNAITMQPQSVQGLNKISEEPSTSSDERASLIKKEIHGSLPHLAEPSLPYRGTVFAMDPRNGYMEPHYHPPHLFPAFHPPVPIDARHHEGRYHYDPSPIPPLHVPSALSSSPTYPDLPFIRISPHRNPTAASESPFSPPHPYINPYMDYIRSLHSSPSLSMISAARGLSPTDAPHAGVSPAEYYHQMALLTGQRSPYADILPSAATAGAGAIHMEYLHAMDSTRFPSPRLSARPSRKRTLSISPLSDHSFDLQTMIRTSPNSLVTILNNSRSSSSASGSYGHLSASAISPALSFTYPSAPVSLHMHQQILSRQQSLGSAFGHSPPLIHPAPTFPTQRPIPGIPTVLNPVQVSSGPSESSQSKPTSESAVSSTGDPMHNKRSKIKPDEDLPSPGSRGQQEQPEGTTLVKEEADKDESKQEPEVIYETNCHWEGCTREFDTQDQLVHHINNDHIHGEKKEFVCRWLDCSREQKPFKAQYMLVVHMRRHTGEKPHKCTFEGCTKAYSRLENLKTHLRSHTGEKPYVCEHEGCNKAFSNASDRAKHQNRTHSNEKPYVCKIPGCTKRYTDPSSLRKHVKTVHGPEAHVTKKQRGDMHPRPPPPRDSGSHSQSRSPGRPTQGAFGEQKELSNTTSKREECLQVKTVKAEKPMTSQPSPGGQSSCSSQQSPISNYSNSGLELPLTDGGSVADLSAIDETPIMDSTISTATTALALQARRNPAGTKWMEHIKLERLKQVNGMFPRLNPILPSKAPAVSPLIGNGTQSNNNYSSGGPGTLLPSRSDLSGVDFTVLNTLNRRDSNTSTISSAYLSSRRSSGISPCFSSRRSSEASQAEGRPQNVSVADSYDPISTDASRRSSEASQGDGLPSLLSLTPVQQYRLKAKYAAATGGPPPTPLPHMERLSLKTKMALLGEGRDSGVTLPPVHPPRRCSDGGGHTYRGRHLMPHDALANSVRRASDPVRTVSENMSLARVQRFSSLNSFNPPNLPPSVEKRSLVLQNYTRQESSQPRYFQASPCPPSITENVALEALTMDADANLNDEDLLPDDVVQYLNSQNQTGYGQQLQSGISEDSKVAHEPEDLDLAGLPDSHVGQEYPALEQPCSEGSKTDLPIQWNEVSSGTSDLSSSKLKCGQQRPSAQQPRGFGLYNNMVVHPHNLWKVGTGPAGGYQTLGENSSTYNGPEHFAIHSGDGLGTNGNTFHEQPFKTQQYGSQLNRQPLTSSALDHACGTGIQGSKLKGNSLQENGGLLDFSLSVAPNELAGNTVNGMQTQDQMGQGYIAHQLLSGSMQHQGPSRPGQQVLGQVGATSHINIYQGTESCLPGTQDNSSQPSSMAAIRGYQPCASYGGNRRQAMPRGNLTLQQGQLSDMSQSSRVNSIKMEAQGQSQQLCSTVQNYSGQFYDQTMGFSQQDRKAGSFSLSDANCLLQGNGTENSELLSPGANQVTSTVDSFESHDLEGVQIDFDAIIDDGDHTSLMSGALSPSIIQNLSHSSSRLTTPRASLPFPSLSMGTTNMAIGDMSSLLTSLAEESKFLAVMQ

Key:
[1] = target: Sec3 (endogenous exocyst subunit) (UniProt Q8R3S6); assay: co-IP; endogenous proteins, co-immunoprecipitation with Sec3 (Fig. 2a, Supplementary Fig. S1a); beads and cells not told in the text shown
[2] = target: Sec5 (endogenous exocyst subunit) (mouse (endogenous in NIH/3T3)) (UniProt Q9D4H1); assay: co-IP; endogenous proteins; beads coated with anti-Sec5 antibodies, rabbit IgG as control; lysis buffer 50 mM Tris pH 7.4, 1% NP-40, 150 mM NaCl, 0.25% sodium deoxycholate; overnight 4 °C; western blot
[3] = target: Sec5 (endogenous exocyst subunit) (mouse (endogenous in NIH/3T3)) (UniProt Q9D4H1); assay: proximity ligation; Duolink PLA kit with anti-Gli2 and anti-Sec5 antibodies in NIH/3T3 Flp-In mouse fibroblasts

Substance | binding [1] | binding [2] | binding [3]
Gli2 (endogenous) (from UniProt Q0VGT2 1-1544) | binds | binds | binds
Gli3 (endogenous) (from UniProt Q61602 1-1583) | binds | binds | –
